Source: paper PMC4136792
Results are given in words; binding and its absence hold for the method and conditions named. For some assays here: In cells and extracts the contact can be indirect. Some binding calls cover weakened binding; strength is not graded here.

Sequences of proteins named here, by UniProt entry; tags and fusion partners are left off. A change or cut given only in a name is not applied to a line headed by its entry.
UniProt Q15796: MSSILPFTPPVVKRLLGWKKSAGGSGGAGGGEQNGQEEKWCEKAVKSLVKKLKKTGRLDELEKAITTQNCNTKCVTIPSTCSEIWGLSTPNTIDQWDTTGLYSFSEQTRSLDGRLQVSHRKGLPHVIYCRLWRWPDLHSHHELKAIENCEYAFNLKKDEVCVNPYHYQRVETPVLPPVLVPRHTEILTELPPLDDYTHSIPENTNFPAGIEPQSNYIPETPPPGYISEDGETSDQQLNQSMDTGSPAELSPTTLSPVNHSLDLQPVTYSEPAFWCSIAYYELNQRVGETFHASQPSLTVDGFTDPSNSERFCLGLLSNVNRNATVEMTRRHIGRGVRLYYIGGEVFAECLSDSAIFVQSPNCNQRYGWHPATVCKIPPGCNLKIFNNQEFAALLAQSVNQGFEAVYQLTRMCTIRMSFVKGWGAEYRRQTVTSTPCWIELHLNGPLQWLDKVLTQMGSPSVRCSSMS
UniProt Q13485: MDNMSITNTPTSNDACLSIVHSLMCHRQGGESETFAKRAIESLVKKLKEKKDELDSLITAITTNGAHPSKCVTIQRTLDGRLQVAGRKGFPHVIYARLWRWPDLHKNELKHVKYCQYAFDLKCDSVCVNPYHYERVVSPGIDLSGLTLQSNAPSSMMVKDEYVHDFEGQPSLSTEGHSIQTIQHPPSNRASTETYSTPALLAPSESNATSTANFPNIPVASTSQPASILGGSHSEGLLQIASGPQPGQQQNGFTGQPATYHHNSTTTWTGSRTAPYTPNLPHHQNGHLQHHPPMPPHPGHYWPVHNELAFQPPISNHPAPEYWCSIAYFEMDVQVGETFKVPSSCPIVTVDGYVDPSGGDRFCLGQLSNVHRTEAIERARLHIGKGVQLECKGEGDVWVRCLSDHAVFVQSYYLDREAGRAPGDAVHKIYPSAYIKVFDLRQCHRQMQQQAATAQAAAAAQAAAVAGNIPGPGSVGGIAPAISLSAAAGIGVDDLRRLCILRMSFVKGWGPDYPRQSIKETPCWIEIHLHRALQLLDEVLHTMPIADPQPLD
UniProt P84022: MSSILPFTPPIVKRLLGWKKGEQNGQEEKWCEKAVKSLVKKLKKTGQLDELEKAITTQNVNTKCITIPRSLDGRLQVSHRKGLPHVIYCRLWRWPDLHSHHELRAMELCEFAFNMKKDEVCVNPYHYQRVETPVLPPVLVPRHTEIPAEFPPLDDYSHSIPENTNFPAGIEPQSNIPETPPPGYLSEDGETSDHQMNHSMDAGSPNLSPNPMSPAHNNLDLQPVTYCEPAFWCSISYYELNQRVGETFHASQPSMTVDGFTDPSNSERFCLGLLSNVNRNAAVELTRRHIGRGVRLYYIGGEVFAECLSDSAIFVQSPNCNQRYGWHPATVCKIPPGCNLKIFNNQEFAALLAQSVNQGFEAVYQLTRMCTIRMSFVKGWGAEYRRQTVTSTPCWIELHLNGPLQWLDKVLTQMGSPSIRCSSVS
UniProt P09874: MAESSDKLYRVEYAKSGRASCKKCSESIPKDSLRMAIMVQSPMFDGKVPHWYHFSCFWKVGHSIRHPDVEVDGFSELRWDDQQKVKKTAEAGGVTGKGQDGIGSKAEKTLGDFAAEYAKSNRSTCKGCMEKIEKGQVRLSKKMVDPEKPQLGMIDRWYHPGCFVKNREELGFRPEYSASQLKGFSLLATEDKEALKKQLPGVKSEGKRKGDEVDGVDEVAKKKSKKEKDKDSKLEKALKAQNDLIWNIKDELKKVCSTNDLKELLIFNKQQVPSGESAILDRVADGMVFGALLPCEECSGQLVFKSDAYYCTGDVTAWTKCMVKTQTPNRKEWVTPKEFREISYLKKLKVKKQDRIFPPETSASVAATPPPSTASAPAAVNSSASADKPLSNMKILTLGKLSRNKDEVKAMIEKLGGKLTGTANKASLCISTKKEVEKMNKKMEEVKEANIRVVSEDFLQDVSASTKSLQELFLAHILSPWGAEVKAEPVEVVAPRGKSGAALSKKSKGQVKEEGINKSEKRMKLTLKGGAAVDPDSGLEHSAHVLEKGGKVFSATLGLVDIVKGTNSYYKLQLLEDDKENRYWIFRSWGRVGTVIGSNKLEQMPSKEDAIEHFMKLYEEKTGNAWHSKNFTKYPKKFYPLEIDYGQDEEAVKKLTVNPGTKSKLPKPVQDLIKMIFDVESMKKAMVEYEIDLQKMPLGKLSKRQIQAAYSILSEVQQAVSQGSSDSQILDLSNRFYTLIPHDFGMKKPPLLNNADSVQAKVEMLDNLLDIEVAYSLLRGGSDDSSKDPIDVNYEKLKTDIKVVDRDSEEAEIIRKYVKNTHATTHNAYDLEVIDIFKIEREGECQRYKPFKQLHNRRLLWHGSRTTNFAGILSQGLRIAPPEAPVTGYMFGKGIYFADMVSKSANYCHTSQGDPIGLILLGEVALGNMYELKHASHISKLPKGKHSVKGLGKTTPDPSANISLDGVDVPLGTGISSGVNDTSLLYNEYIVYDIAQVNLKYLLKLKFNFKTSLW
UniProt Q9UGN5: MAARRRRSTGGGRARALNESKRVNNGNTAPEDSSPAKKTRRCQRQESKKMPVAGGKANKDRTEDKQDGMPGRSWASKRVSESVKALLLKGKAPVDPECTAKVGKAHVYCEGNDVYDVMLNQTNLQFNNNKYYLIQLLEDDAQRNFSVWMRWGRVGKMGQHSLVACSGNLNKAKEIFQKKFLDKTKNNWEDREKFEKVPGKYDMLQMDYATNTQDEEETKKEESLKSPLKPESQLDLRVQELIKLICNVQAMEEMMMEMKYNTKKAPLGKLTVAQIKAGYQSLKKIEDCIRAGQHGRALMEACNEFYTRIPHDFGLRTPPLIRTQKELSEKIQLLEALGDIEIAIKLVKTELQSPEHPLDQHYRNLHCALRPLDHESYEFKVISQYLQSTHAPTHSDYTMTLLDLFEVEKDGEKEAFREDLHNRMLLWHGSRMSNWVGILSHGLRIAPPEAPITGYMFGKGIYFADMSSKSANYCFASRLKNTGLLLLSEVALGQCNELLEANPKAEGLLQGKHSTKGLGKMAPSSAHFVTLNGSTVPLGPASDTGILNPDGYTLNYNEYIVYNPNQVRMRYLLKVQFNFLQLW

Columns and labels:
[1] = molecular target: Flag-Smad2/3/4 (Flag-Smad2, Flag-Smad3 and Flag-Smad4 co-expressed) (UniProt Q15796); experiment: co-IP; HEK-293T transiently transfected with Flag-Smad2/3/4; anti-Flag immunoprecipitation, immunoblot for endogenous PARP-1 and PARP-2; vehicle or 5 ng/ml TGFβ1 for 30 min; NP-40 lysis buffer, one wash with 0.5 M NaCl
[2] = molecular target: GST-Smad4 (UniProt Q13485); experiment: pull-down; GST or GST-Smad proteins kept on glutathione beads, incubated with 100 ng PARP-1 and/or 100 ng PARP-2 in 100 mM Tris-HCl pH 8, 10 mM MgCl2, 1 mM dithiothreitol with β-NAD and 32P-β-NAD for 30 min at 37°C; beads washed in NP-40 lysis buffer; SDS-PAGE and autoradiography (only ADP-ribosylated proteins are seen); both purified
[3] = molecular target: GST-Smad3 (UniProt P84022); experiment: as above
[4] = molecular target: poly(ADP-ribose) polymerase-1 (PARP-1) (human (endogenous in HaCaT)) (UniProt P09874); experiment: co-IP; endogenous proteins of HaCaT lysate; immunoprecipitation of PARP-1 or of PARP-2, immunoblot with the reciprocal antibody; vehicle or 5 ng/ml TGFβ1 for 30 min
[5] = molecular target: poly(ADP-ribose) polymerase-1 (PARP-1) (human (endogenous in HaCaT)) (UniProt P09874); experiment: proximity ligation; in situ PLA (Duolink II) on permeabilized HaCaT cells, endogenous proteins, one mouse and one rabbit primary antibody; vehicle, 2 ng/ml TGFβ1 for 0.5 or 1.5 h, or 10 mM hydrogen peroxide for 10 min; control, PARP-1 or PARP-2 siRNA
[6] = molecular target: PARP-2 (human (endogenous in HaCaT)) (UniProt Q9UGN5); experiment: co-IP; endogenous proteins of HaCaT lysate; immunoprecipitation of PARP-1 or of PARP-2, immunoblot with the reciprocal antibody; vehicle or 5 ng/ml TGFβ1 for 30 min
[7] = molecular target: Smad3 (human (endogenous in HaCaT)) (UniProt P84022); experiment: proximity ligation; in situ PLA (Duolink II) on permeabilized HaCaT cells, endogenous proteins, one mouse and one rabbit primary antibody; vehicle, 2 ng/ml TGFβ1 for 0.5 or 1.5 h, or 10 mM hydrogen peroxide for 10 min; control, PARP-1 or PARP-2 siRNA

## PARP-1 (from UniProt P09874 1-1014) (enzyme)
[1]
  binding: binds

## recombinant PARP-1 (from UniProt P09874 1-1014) (enzyme)
[2]
  binding: binds
[3]
  binding: binds

## PARP-2 (from UniProt Q9UGN5 1-583) (enzyme)
[4]
  binding: binds
[1]
  binding: binds
[5]
  binding: binds

## poly(ADP-ribose) polymerase-1 (PARP-1) (from UniProt P09874 1-1014) (enzyme)
[6]
  binding: binds
[7]
  binding: binds
